Some of the results follow. The main result of the screen is listed elsewhere. These columns were measured beside it and carry no call. Compounds called inactive in the main read-out are mostly missing here. The note in brackets gives the kind of curve behind each potency; many fits are weak.
Experiment: qHTS Assay for Lipid Storage Modulators in Drosophila S3 Cells;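 for cell number change: cells counted by Cell Tracker Red CMTPX staining in the red channel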
Conditions: BODIPY lipid droplet fluorescence, 18-24 h; for cell number change: measured here: cell count max response, cells fed with added oleic acid
Outline: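 Laser-scanning cytometry quantifies lipid droplet accumulation (500–530 nm total intensity; droplet/cell object ratio) in oleic acid-fed (400 uM added) Drosophila S3 cells treated with a concentration series. 20 uM Triacsin C defined 100% inhibition.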

[1] = measured here: cell number channel AC50, cells fed with added oleic acid
[2] = measured here: lipid fluorescence (Fed channel) AC50, cells fed with added oleic acid

| Compound | cell number change | AC50 [1] | AC50 [2] |
| --- | --- | --- | --- |
| CCn1cc(/C=C(\NC(=O)c2ccccc2)C(=O)N2CCOCC2)c2ccccc21 | 9.59% | 0.0651 µM [rising, full curve, poor fit] | – |
| CCC(CC)c1nnc(NC(=O)CS(=O)(=O)c2ccc(C)cc2)s1 | 17.1% | – | – |
| O=C(CSc1nnc(-c2ccccn2)n1-c1ccc(Cl)cc1)Nc1ccc2c(c1)OCO2 | 34.6% | 1.16 µM [rising, full curve] | 0.058 µM [rising, full curve] |
| CCc1ccc2nc3c(c(C(=O)O)c2c1)CCC3 | 0.681% | 0.00461 µM [falling, full curve, poor fit] | 29.1 µM [falling, single point] |
| CCOc1cccc(/C=C/C(=O)O)c1 | 11.2% | – | – |
| CC(=O)Nc1c2c3c(cccc3n(C)c1=O)C(=O)c1ccccc1-2 | 16.9% | – | 29.1 µM [rising, single point] |
| CC(=O)N(c1ccccc1)C1SC(=O)N(c2ccccc2)C1=O (stereo not drawn) | -0.404% | – | – |
| CC(C)(C)C1CCc2c(sc(NC(=O)c3ccncc3)c2C(N)=O)C1 (stereo not drawn) | -11.9% | – | – |
| Cc1cc(NC(=O)CSc2nnnn2-c2cc(Cl)ccc2C)no1 | – | – | 0.58 µM [rising, single point] |
| O=C(Cn1cnnn1)Nc1cccc([N+](=O)[O-])c1 | 29.5% | 0.0651 µM [rising, full curve, poor fit] | – |
| CCc1c(C)sc(NC(=O)c2cc(-c3ccc(O)cc3)on2)c1C#N | -30.8% | 6.51 µM [falling, single point] | 0.103 µM [rising, full curve] |
| CCOC(=O)C1CCN(CC(=O)Nc2c(C(=O)OC)[nH]c3ccccc23)CC1 | -32.1% | 7.31 µM [falling, partial curve] | – |
| COc1ccc(CCNc2ncnc3c2oc2ccccc23)cc1OC | -59.7% | 5.8 µM [falling, partial curve] | 3.66 µM [falling, partial curve] |
| COc1cccc(C2CC(c3ccc(C)cc3)n3ncnc3N2)c1 (stereo not drawn) | 47.9% | 29.1 µM [rising, single point] | – |
| Cc1cc(C)cc(NC(=O)CN2CCC(C(=O)c3ccccc3)CC2)c1 | 10.3% | – | 2.06 µM [rising, full curve] |
| c1ccc2c(CN3CCSCC3)cccc2c1 | 17.5% | – | 29.1 µM [rising, single point] |
| CCOC(=O)[C@H]1[C@H]2COc3ccc(C)cc3[C@@H]2N2C(=O)CN(Cc3ccccc3)C(=O)[C@@]12C | -17.5% | – | – |
| O=C1/C(=C\c2ccccc2)SC(=S)N1CCC(=O)N1CCCCC1CCO (stereo not drawn) | 8.02% | – | 10.3 µM [falling, partial curve] |
| Cc1cc(O)c(Sc2ncn[nH]2)cc1NS(=O)(=O)c1ccc(Cl)cc1 | -21.2% | – | 7.31 µM [falling, single point] |
| O=C(CSc1nnc2c(Cl)cc(Cl)cn12)N1CCOCC1 | – | 0.651 µM [falling, full curve, poor fit] | 6.51 µM [falling, single point] |
| Cn1c(NC(=O)C[n+]2cc(-c3ccc(F)cc3)n3c2CCC3)cc(=O)n(C)c1=O | 4.9% | – | – |

| Compound | cell number change | AC50 [1] | AC50 [2] |
| --- | --- | --- | --- |
| C=CCn1c(SCC(=O)Nc2cc(C)on2)nc2sc(C)c(C)c2c1=O | – | 0.231 µM [rising, full curve, poor fit] | 2.06 µM [rising, partial curve] |
| CCOC(=O)CNC(=O)OC1CCN2Cc3ccccc3N=C12 (stereo not drawn) | 17.8% | – | 6.51 µM [falling, single point] |
| O=C(N/N=C/C1C(c2ccccc2)C1(Cl)Cl)c1cccc(Br)c1 (stereo not drawn) | 112% | – | 29.1 µM [rising, partial curve] |
| COc1ccc(OC)c(NC(=O)COC(=O)c2cc3c(s2)CCC3)c1 | – | 0.651 µM [rising, partial curve, poor fit] | – |
| COc1ccc2cnn(CCOc3cc(C)ccc3C(C)C)c(=O)c2c1OC | – | – | 5.8 µM [rising, partial curve] |
| COCCNC(=O)c1cc2sccc2n1C | 0.873% | – | 5.17 µM [rising, full curve, poor fit] |
| CCN(CC)S(=O)(=O)c1cccc(NC(=O)COC(=O)c2ccc(Br)o2)c1 | -51.2% | 13 µM [falling, partial curve] | – |
| CCOC(=O)Cn1c(=O)oc2cc(S(=O)(=O)N(C)c3ccc(OC)cc3)ccc21 | -10.2% | 6.51 µM [rising, single point] | 6.51 µM [rising, single point] |
| CN(C)Cc1ccc(CNC(=O)COc2ccc3ccccc3c2)cc1 | -5.71% | – | 4.11 µM [rising, full curve] |
| CC1CCCC(C)N1C(=O)Cn1nnc(-c2ccccc2)n1 (stereo not drawn) | 14.4% | – | 6.51 µM [rising, single point] |
| COC(=O)c1cc(NC(=O)Cc2cccs2)cc(C(=O)OC)c1 | 38.9% | – | – |
| CC(=O)C1=C(O)C(=O)N(c2cc(C(C)(C)C)on2)C1c1ccc(Br)cc1 (stereo not drawn) | -50.7% | 18.4 µM [falling, partial curve] | 0.13 µM [rising, full curve, poor fit] |
| COC(=O)/C(=C\Nc1ccc(OC)cc1)NC(=O)c1ccc(Cl)cc1Cl | -3.53% | 0.0058 µM [falling, full curve, poor fit] | – |
| CCOC(=O)c1cc(-c2cc3ccccc3o2)nc2c1c(=O)[nH]c(=O)n2CCOC | 7.93% | – | 0.517 µM [rising, full curve, poor fit] |
| Cc1cc(NS(=O)(=O)c2ccc(NC(=O)COc3ccccc3C(C)(C)C)cc2)no1 | -2.89% | – | 10.3 µM [rising, partial curve] |
| COc1ccc(C(=O)Cc2ccc(OC)c(OC)c2)cc1 | -14.1% | – | – |
| Cc1nc(N2CCN(C(=O)CCC(=O)O)CC2)c2c(C)c(C)sc2n1 | 2.66% | – | – |
| O=C(CSc1ccc([N+](=O)[O-])cc1)OCC(=O)N1CCCC1=O | -2.57% | – | – |
| CCc1ccccc1N1CC(C(=O)Nc2cc(C)on2)CC1=O (stereo not drawn) | 7.89% | – | – |
| CN1C(=O)C2(c3ccccc31)c1c(oc3ccccc3c1=O)C(=O)N2CCCO (stereo not drawn) | 19.8% | – | 0.0731 µM [rising, full curve, poor fit] |
| COc1ccccc1NS(=O)(=O)c1cccc(C(=O)N2CC(C)OC(C)C2)c1 (stereo not drawn) | -34.7% | 16.4 µM [falling, single point] | 18.4 µM [falling, single point] |

Only AC50 [2] and cell number change, for 3 of the compounds above:

| Compound | AC50 [2] | cell number change |
| --- | --- | --- |
| CCN(CC)S(=O)(=O)c1cccc(NC(=O)COC(=O)c2ccc(Br)o2)c1 | – | -51.2% |
| CCOC(=O)Cn1c(=O)oc2cc(S(=O)(=O)N(C)c3ccc(OC)cc3)ccc21 | 6.51 µM [rising, single point] | -10.2% |
| CN(C)Cc1ccc(CNC(=O)COc2ccc3ccccc3c2)cc1 | 4.11 µM [rising, full curve] | -5.71% |

Further entries:

| Compound | cell number change | AC50 [1] | AC50 [2] |
| --- | --- | --- | --- |
| O=C(NCC(=O)N1CCN(c2ccc(C(F)(F)F)cn2)CC1)c1ccc(Br)o1 | 0.963% | – | 6.51 µM [rising, single point] |
| CN(CC(=O)Nc1c(Cl)cccc1Cl)C(=O)CCc1nc2sc3c(c2c(=O)[nH]1)CCCC3 | 15% | – | 18.4 µM [rising, single point] |
| CC(=O)c1c(C)nn(CC(=O)NC2CCCN(Cc3ccc(CC(C)C)cc3)C2)c1C (stereo not drawn) | 11.6% | – | 0.58 µM [rising, single point] |
| Cc1ccccc1Cn1c(=O)sc2ccccc2c1=O | 53.1% | 20.6 µM [rising, single point] | – |
| Cc1ccccc1NC(=O)CSc1nnc(C)c2ccccc12 | 10.1% | – | – |
| CC(C)NC(=O)c1c(CSc2ccccc2)noc1C(=O)NCc1ccccc1 | 1.36% | – | 4.11 µM [rising, full curve, poor fit] |
| COC(C[C@@H]1O[C@@H]1C(=O)COCc1ccccc1)OC | -3.15% | – | 0.326 µM [falling, full curve, poor fit] |
| C[C@H](NC(=O)c1nc[nH]c1C(=O)NCc1ccc(CNC(=O)OC(C)(C)C)cc1)C(=O)OC(C)(C)C | -12.3% | – | 29.1 µM [falling, single point] |
| O=C1OCCN1c1c(-c2ccccc2)c(-c2cccs2)nc2c(-c3ccccc3)cccc12 | -0.299% | – | 25.9 µM [falling, partial curve, poor fit] |
| CN(C)C1=NCCN1CCC1CCCCC1 | -0.109% | – | 23.1 µM [rising, single point] |
| COc1ccc(CC(NC(C)=O)C(=O)NC2CCN(C(=O)Nc3ccccc3Cl)CC2)cc1OC (stereo not drawn) | -56.5% | 25.9 µM [falling, single point] | – |
| Cc1ccc(S(=O)(=O)N2CCCCC2)cc1NC(=O)CSc1ncccn1 | -14.6% | – | – |
| CC1(C)CC(O)C(C(O)c2cccc([N+](=O)[O-])c2)C(C)(C)N1 (stereo not drawn) | -19.9% | 0.731 µM [falling, full curve] | 5.8 µM [falling, full curve] |
| O=C(O)CCc1ccc(-c2ccc(Br)cc2)n1Cc1ccco1 | – | – | 9.2 µM [falling, partial curve] |
| O=C(COC(=O)c1cc(Br)ccc1O)NNC(=O)c1cccs1 | -9.27% | – | 6.51 µM [falling, single point] |
| Cn1cc(C(=O)c2ccc(Cl)cc2Cl)cc1C(=O)N/N=C(\N)COc1ccc(Cl)cc1 | 19.1% | – | 14.6 µM [rising, partial curve] |
| O=C1CC(c2ccccc2)C(C(=O)O)N1 (stereo not drawn) | 6.79% | – | 3.26 µM [falling, single point] |
| CC1=NN(C(=O)COc2cc(C)ccc2C(C)C)C(O)(c2ccccc2)C1 (stereo not drawn) | -19.1% | – | 0.326 µM [falling, partial curve, poor fit] |
| COCCN(C(=O)Cc1cccs1)C(C(=O)NCc1ccc(OC)cc1)c1ccc(C(C)C)cc1 (stereo not drawn) | – | 2.31 µM [rising, single point] | 3.66 µM [rising, partial curve] |
